Data source: PubChem BioAssay AID1508597 (Cure First, 2020)
Purpose: 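Survival screen with siRNA in ovarian cancer cells derived from patients, with or without rucaparib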 (primary screen). System: human ovarian carcinoma lines grown from tumours: OCI-P5x (papillary serous) and OCI-C5x (clear cell). Knock-down reagent: siRNA pool against human genes, 1.25 pmol siRNA per well. Timing: 72 h or 96 h, depending on the cell culture. Conditions: rucaparib 20 µM (about IC30) or vehicle, present until read-out. Rucaparib or vehicle: Vehicle. Cell line: OCI-P5x (serous). Detection: 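Luminescent ATP-based viability assay read 72 or 96 h after transfection, depending on culture, given as normalised percent viability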. Direction: viability, normalised: higher = more viable cells remaining. Active means: 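Active when normalised viability falls below 80 percent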. Meaning of the calls: active = viability under 80%; inactive = viability 80% or more.
Shown is an unselected part of the about 2,100 reagents, under one of the conditions tested. 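Calls flag viability under 80% in either arm, not effects specific to rucaparib; the reference for percent is not stated.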 Some reagents were tested in more than one well and are listed for each. Reagent sequences are not shown. Not stated in the record: the 100% reference.

Target gene	technical replicate	viability, normalised (%)	Call
MKNK2 (MAPK interacting serine/threonine kinase 2)	1	81.9	inactive
MKNK2 (MAPK interacting serine/threonine kinase 2)	2	81.4	inactive
MKNK2 (MAPK interacting serine/threonine kinase 2)	3	86.7	inactive
S100A4 (S100 calcium binding protein A4)	1	48.3	active
S100A4 (S100 calcium binding protein A4)	2	51.9	active
S100A4 (S100 calcium binding protein A4)	3	58.4	active
SUMO1 (small ubiquitin like modifier 1)	1	71.9	active
SUMO1 (small ubiquitin like modifier 1)	2	61.7	active
SUMO1 (small ubiquitin like modifier 1)	3	47.2	active
CDX4 (caudal type homeobox 4)	1	83.7	inactive
CDX4 (caudal type homeobox 4)	2	67.6	active
CDX4 (caudal type homeobox 4)	3	88.9	inactive
SOX2 (SRY-box transcription factor 2)	1	73.8	active
SOX2 (SRY-box transcription factor 2)	1	52.6	active
SOX2 (SRY-box transcription factor 2)	2	65	active
SOX2 (SRY-box transcription factor 2)	2	49.1	active
SOX2 (SRY-box transcription factor 2)	3	56.4	active
SOX2 (SRY-box transcription factor 2)	3	53	active
TADA2A (transcriptional adaptor 2A)	1	92.7	inactive
TADA2A (transcriptional adaptor 2A)	2	86.1	inactive
TADA2A (transcriptional adaptor 2A)	3	89.2	inactive
MSH4 (mutS homolog 4)	1	74.9	active
MSH4 (mutS homolog 4)	2	92	inactive
MSH4 (mutS homolog 4)	3	81.7	inactive
OXSR1 (oxidative stress responsive kinase 1)	1	75.4	active
OXSR1 (oxidative stress responsive kinase 1)	2	74.9	active
OXSR1 (oxidative stress responsive kinase 1)	3	67.4	active
EIF2AK2 (eukaryotic translation initiation factor 2 alpha kinase 2)	1	79.3	active
EIF2AK2 (eukaryotic translation initiation factor 2 alpha kinase 2)	2	53.9	active
EIF2AK2 (eukaryotic translation initiation factor 2 alpha kinase 2)	3	85.7	inactive
WEE1 (WEE1 G2 checkpoint kinase)	1	38.2	active
WEE1 (WEE1 G2 checkpoint kinase)	1	23.1	active
WEE1 (WEE1 G2 checkpoint kinase)	2	33.1	active
WEE1 (WEE1 G2 checkpoint kinase)	2	22.1	active
WEE1 (WEE1 G2 checkpoint kinase)	3	39.9	active
WEE1 (WEE1 G2 checkpoint kinase)	3	25.6	active
PDK1 (pyruvate dehydrogenase kinase 1)	1	76	active
PDK1 (pyruvate dehydrogenase kinase 1)	1	62.1	active
PDK1 (pyruvate dehydrogenase kinase 1)	2	70.4	active
PDK1 (pyruvate dehydrogenase kinase 1)	2	84.4	inactive
PDK1 (pyruvate dehydrogenase kinase 1)	3	69.5	active
PDK1 (pyruvate dehydrogenase kinase 1)	3	73.6	active
HSPB8 (heat shock protein family B (small) member 8)	1	80.7	inactive
HSPB8 (heat shock protein family B (small) member 8)	2	62.7	active
HSPB8 (heat shock protein family B (small) member 8)	3	62.6	active

Next part; the last 2 above are carried over.
Target gene	technical replicate	viability, normalised (%)	Call
HSPB8 (heat shock protein family B (small) member 8)	2	62.7	active
HSPB8 (heat shock protein family B (small) member 8)	3	62.6	active
ATP5F1D (ATP synthase F1 subunit delta)	1	75.9	active
ATP5F1D (ATP synthase F1 subunit delta)	2	78.9	active
ATP5F1D (ATP synthase F1 subunit delta)	3	78.3	active
MAD2L2 (mitotic arrest deficient 2 like 2)	1	69.9	active
MAD2L2 (mitotic arrest deficient 2 like 2)	2	64.3	active
MAD2L2 (mitotic arrest deficient 2 like 2)	3	71.3	active
TRIP13 (thyroid hormone receptor interactor 13)	1	55.1	active
TRIP13 (thyroid hormone receptor interactor 13)	2	52.3	active
TRIP13 (thyroid hormone receptor interactor 13)	3	55.3	active
XRCC6 (X-ray repair cross complementing 6)	1	70.2	active
XRCC6 (X-ray repair cross complementing 6)	2	59.3	active
XRCC6 (X-ray repair cross complementing 6)	3	52.5	active
ENPP6 (ectonucleotide pyrophosphatase/phosphodiesterase 6)	1	73.4	active
ENPP6 (ectonucleotide pyrophosphatase/phosphodiesterase 6)	2	72.4	active
ENPP6 (ectonucleotide pyrophosphatase/phosphodiesterase 6)	3	59.3	active
STYK1 (STY kinase 1)	1	85.4	inactive
STYK1 (STY kinase 1)	2	79.6	active
STYK1 (STY kinase 1)	3	70.7	active
HGF (hepatocyte growth factor)	1	71.3	active
HGF (hepatocyte growth factor)	2	72.5	active
HGF (hepatocyte growth factor)	3	81.5	inactive
RBL2 (RB transcriptional corepressor like 2)	1	74.4	active
RBL2 (RB transcriptional corepressor like 2)	2	90.2	inactive
RBL2 (RB transcriptional corepressor like 2)	3	80.3	inactive
ENPP1 (ectonucleotide pyrophosphatase/phosphodiesterase 1)	1	59.2	active
ENPP1 (ectonucleotide pyrophosphatase/phosphodiesterase 1)	2	59.1	active
ENPP1 (ectonucleotide pyrophosphatase/phosphodiesterase 1)	3	71.7	active
IKZF1 (IKAROS family zinc finger 1)	1	70	active
IKZF1 (IKAROS family zinc finger 1)	2	58.3	active
IKZF1 (IKAROS family zinc finger 1)	3	85.8	inactive
